Data from US20180244699A1, “1-HYDROXY-3H-2,1-BENZOXABOROLE DERIVATIVES AND THEIR USE AS MICROBIOCIDES” (Syngenta Participations AG, priority 2015, published 2018).
Some entries share one result that the patent states for a list of compounds.

How the values were obtained:
Fusarium culmorum = assay type: cell-based; conditions: 20 ppm; liquid culture, growth inhibition photometrically 3-4 days after application; compared to untreated control
Plasmopara viticola = assay type: in vivo; conditions: 200 ppm; grape vine leaf disks, preventative, inoculated 1 day after application; compared to untreated control

Compound	control of Fusarium culmorum (Fusarium culmorum)	control of Plasmopara viticola (Plasmopara viticola)
COC(=O)c1ccc2c(c1OC)B(O)OC2 [Compound 1, methyl 1-hydroxy-7-methoxy-3H-2,1-benzoxaborole-6-carboxylate]	at least 80%	
COC(=O)c1ccc2c(c1O)B(O)OC2 [Compound 2, methyl 1,7-dihydroxy-3H-2,1-benzoxaborole-6-carboxylate]	at least 80%	
COC(=O)c1ccc2c(c1Cl)B(O)OC2 [Compound 3, methyl 7-chloro-1-hydroxy-3H-2,1-benzoxaborole-6-carboxylate]	at least 80%	at least 80%
CCOc1c(C(=O)OC)ccc2c1B(O)OC2 [Compound 4, methyl 7-ethoxy-1-hydroxy-3H-2,1-benzoxaborole-6-carboxylate]	at least 80%	
CNC(=O)c1ccc2c(c1OC)B(O)OC2 [Compound 8, 1-hydroxy-7-methoxy-N-methyl-3H-2,1-benzoxaborole-6-carboxamide]		at least 80%
CCc1ccc(NC(=O)c2ccc3c(c2OC)B(O)OC3)cc1 [Compound 29, N-(4-ethylphenyl)-1-hydroxy-7-methoxy-3H-2,1-benzoxaborole-6-carboxamide]	at least 80%	
COC(=O)C#CCOC(=O)c1ccc2c(c1OC)B(O)OC2 [Compound 79, (4-methoxy-4-oxo-but-2-ynyl) 1-hydroxy-7-methoxy-3H-2,1-benzoxaborole-6-carboxylate]	at least 80%	
COc1c(C(=O)OCn2cccn2)ccc2c1B(O)OC2 [Compound 86, pyrazol-1-ylmethyl 1-hydroxy-7-methoxy-3H-2,1-benzoxaborole-6-carboxylate]		at least 80%
COc1cccc(C#CCOC(=O)c2ccc3c(c2OC)B(O)OC3)c1 [Compound 107, 3-(3-methoxyphenyl)prop-2-ynyl 1-hydroxy-7-methoxy-3H-2,1-benzoxaborole-6-carboxylate]		at least 80%
CCOC(=O)COC(=O)c1ccc2c(c1OC)B(O)OC2 [Compound 111, (2-ethoxy-2-oxo-ethyl) 1-hydroxy-7-methoxy-3H-2,1-benzoxaborole-6-carboxylate]		at least 80%
COc1c(C(=O)OCCN(C)C(=O)OC(C)(C)C)ccc2c1B(O)OC2 [Compound 112, 2-[tert-butoxycarbonyl(methyl)amino]ethyl 1-hydroxy-7-methoxy-3H-2,1-benzoxaborole-6-carboxylate]		at least 80%
